Values from PubChem BioAssay AID1259308 (NCATS, 2017)
Screen: 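Knock-downs that increase output of a recombinant reporter protein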 (primary screen). Cells: human HEK293 embryonic kidney cells stably expressing firefly luciferase (HEK-CMV-Luc2-Hygro). Reagent: single siRNA against human genes, 0.8 pmol siRNA per well. Time to read-out: 72 h. Read-out: 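Luciferase light (ONE-Glo) measured on one replicate plate set and viability (CellTiter-Glo) on the other, scaled to a negative control siRNA, with robust z-scores and luciferase per cell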. Scale: total luciferase, z-score: higher = more reporter protein produced. Active means: 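An siRNA counts as active if its total luciferase robust z-score exceeds 3; genes with two or more such siRNAs out of three were retested with fresh siRNAs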. Calls: active = raised luciferase; inactive = no rise.
Shown is a random part of about 59,000 reagents tested. About 1,510 of them (2.6%) count as active. 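Calls use total luciferase alone and ignore viability, so some active siRNAs may act by altering cell number.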 Reagents against one gene are numbered here. Further read-outs or replicates are left out here.

| target gene | reagent | total luciferase, z-score | activity call |
| --- | --- | --- | --- |
| LOC729722 (retired record) | 1 | 0.315 | inactive |
| LOC729722 (retired record) | 2 | -1.29 | inactive |
| LOC729722 (retired record) | 3 | 3.44 | active |
| LRIG2 | 1 | -0.296 | inactive |
| LRIG2 | 2 | 0.891 | inactive |
| LRIG2 | 3 | -1.29 | inactive |
| EPS8L2 | 1 | -0.597 | inactive |
| EPS8L2 | 2 | 1.25 | inactive |
| EPS8L2 | 3 | -1.71 | inactive |

The list goes on, starting with the last 2 of the part before.
| target gene | reagent | total luciferase, z-score | activity call |
| --- | --- | --- | --- |
| EPS8L2 | 2 | 1.25 | inactive |
| EPS8L2 | 3 | -1.71 | inactive |
| GATD3 | 1 | 0.591 | inactive |
| GATD3 | 2 | 0.812 | inactive |
| GATD3 | 3 | -1.05 | inactive |
| ENTPD5 | 1 | 0.726 | inactive |
| ENTPD5 | 2 | 1.28 | inactive |
| ENTPD5 | 3 | 1 | inactive |
| LGALSL | 1 | -0.968 | inactive |
| LGALSL | 2 | 0.023 | inactive |
| LGALSL | 3 | -1.52 | inactive |
| BCAN | 1 | -0.501 | inactive |
| BCAN | 2 | 2.12 | inactive |
| BCAN | 3 | 0.722 | inactive |
| STX7 | 1 | 0.56 | inactive |
| STX7 | 2 | 0.32 | inactive |
| STX7 | 3 | -0.686 | inactive |
